# Source: PubChem BioAssay AID504467 (National Center for Advancing Translational Sciences (NCATS), 2011)
# The whole screen tested about 330,000 compounds, of which about 7,700 (2.3%) were called active. This list was built around the results that the source calls inconclusive (neither active nor inactive); the mix of calls is not that of the screen. The call rests on the fitted dose curve; in most records, active means well fitted inhibition curve with a large enough effect; inconclusive means small, poorly fitted or top-dose-only effect, or effect the other way; inactive means flat fitted curve, though single readings scatter. A potency beside an inconclusive call is a rough fit, not a confirmed value.
# Test: qHTS screen for small molecules that inhibit ELG1-dependent DNA repair in human embryonic kidney (HEK293T) cells expressing luciferase-tagged ELG1; further: nearly all actives have a fitted effect of over 55% in size
# Conditions: HEK293T ELG1-luciferase reporter, luminescence, 16 h, DNA damage induced by 5-fluorouridine; series mostly up to 46.1 µM
# Method in brief: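 Quantitative HTS, concentration-response format. 2,000 cells/well co-treated with 5-fluorouridine and compound, 16 hr in 5% CO2 at 37 °C; ONE-Glo luminescence read after 30 min.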
# Potency means the concentration at half of the fitted maximal effect.
row,Compound,Potency
1,CCOC(=O)Cn1nc(NC(=O)c2ccc(C(=O)OC)cc2)cc1C,inactive
2,O=C1C=C(c2ccc(C(=O)O)cc2)C[C@@H](c2ccc(Cl)cc2)C1,"inconclusive: 29.1 µM [activator, single point]"
3,O=C(COc1nsnc1N1CCOCC1)Nc1cccc(Cl)c1,"inconclusive: 25.9 µM [inhibitor, partial curve, poor fit]"
4,O=C(Nc1ccccc1)c1nc2ccccc2s1,"inconclusive: 1.03 µM [activator, full curve]"
5,COc1cc(NC(=S)NC(=O)C(C)C)ccc1NC(=O)c1cc2ccccc2o1,"inconclusive: 4.11 µM [inhibitor, single point]"
6,Cn1sc(NC(=O)c2ccccc2)nc1=O,"inconclusive: 32.6 µM [activator, single point]"
7,COc1cccc(CN(C(=O)c2cc3ccccc3oc2=O)C2CCS(=O)(=O)C2)c1 (stereo not drawn),"inconclusive: 23.1 µM [activator, single point]"
8,CN(C(=O)CSc1nnc(-c2n[nH]c3ccccc23)o1)c1ccccc1,"inconclusive: 29.1 µM [inhibitor, single point]"
9,O=C(/C=C/c1ccccc1[N+](=O)[O-])N1CCc2ccccc2C1,"inconclusive: 16.4 µM [activator, partial curve, poor fit]"
10,COc1ccc(/C=N/n2c(SC)nnc(C(C)(C)C)c2=O)cc1OC,"inconclusive: 29.1 µM [inhibitor, single point]"
11,Cn1c(=O)n(C)c2cc(C(N)=O)ccc21,"inconclusive: 25.9 µM [activator, single point]"
12,O=c1[nH]cnc2c1ncn2[C@@H]1C[C@@H](O)[C@H](CO)O1,"inconclusive: 20.6 µM [activator, single point]"
13,Cc1nn(C)cc1/C=N/NC(=S)Nc1ccc(Cl)cc1Cl,inactive
14,CCN(CC)C(=O)c1sc(NC(=O)c2cc(-c3ccc(C)s3)nc3ccccc23)c(C(=O)OC)c1C,"inconclusive: 10.3 µM [inhibitor, partial curve, poor fit]"
15,CC(=O)c1cc2c(cc1NC(=O)CCn1cnnn1)OCO2,inactive
16,Cc1ccc(C2CC(c3ccccc3)=NN2C(=S)Nc2ccccc2)o1 (stereo not drawn),"inconclusive: 4.11 µM [inhibitor, single point]"
17,CC1(C)CN(c2cccc(-c3ccnc4ncnn34)c2)C1=O,"inconclusive: 23.1 µM [activator, partial curve]"
18,Cc1ccc(/C=C/C(=O)O)cc1S(=O)(=O)Nc1ccc2c(c1)OCO2,"inconclusive: 9.2 µM [activator, partial curve, poor fit]"
19,COc1cccc(/C=N/NC(=O)CN2CC(c3ccccc3)CC2=O)c1O (stereo not drawn),inactive
20,CCN(CC)c1ccc2cc(-c3nc4ccccc4[nH]3)c(=O)oc2c1,"inconclusive: 0.184 µM [activator, partial curve]"
21,COc1ccccc1CNC(=O)C1CCC(CNS(=O)(=O)c2ccc(C)cc2)CC1 (stereo not drawn),"inconclusive: 16.4 µM [inhibitor, single point]"
22,CCc1ccccc1NC(=O)c1cc(-c2ccc(F)cc2)on1,"inconclusive: 2.06 µM [activator, full curve, poor fit]"
23,CC1(C)Cc2nc3sc4c(=O)n(CC(=O)NCc5ccco5)cnc4c3cc2CO1,"inconclusive: 29.1 µM [activator, single point]"

row,Compound,Potency
1,N=C1SCC(=O)N1c1ccc(Cl)cc1,inactive
2,O=C1c2ccccc2NC(c2cccc(O)c2)N1Cc1ccco1 (stereo not drawn),"inconclusive: 20.6 µM [inhibitor, single point]"
3,O=C(N/N=C/c1ccc[nH]1)c1cc(-c2ccc(Cl)cc2)nc2ccccc12,"inconclusive: 18.3 µM [inhibitor, single point]"
4,COc1ccc(CNc2oc(Cc3cccc4ccccc34)nc2C#N)cc1,"inconclusive: 20.6 µM [inhibitor, single point]"
5,O=C(CSc1c[nH]c2ccccc12)N1CCCc2ccccc21,"inconclusive: 0.0164 µM [inhibitor, full curve, poor fit]"
6,CC(C)[C@H](NC(=O)c1ccco1)C(=O)NC12CC3CC(CC(C3)C1)C2,inactive
7,Cc1n[nH]c(=O)c2c(NC(=O)COC(=O)c3cccc(OC(F)F)c3)oc(C)c12,"inconclusive: 6.51 µM [activator, partial curve]"
8,COc1ccc2[nH]c(=O)c(CN(C(=O)c3ccco3)C3CCCCC3)cc2c1,"inconclusive: 14.6 µM [activator, partial curve, poor fit]"
9,CCOc1ccc(C(=O)CCC(=O)Nc2ncccc2O)cc1,"inconclusive: 10.3 µM [activator, single point]"
10,CCc1ccc(NC(=S)Nc2cccc(OC)c2)cc1,"inconclusive: 29.1 µM [activator, single point]"
11,C/C(=N\O)c1c(O)cc(-c2ccccc2)n(-c2ccccc2)c1=O,inactive
12,CCN(C(=O)COC(=O)c1cc(-c2cccs2)nc2ccccc12)C1CCS(=O)(=O)C1 (stereo not drawn),inactive
13,COc1ccccc1/C=C/C(C)=O,inactive
14,CC(C)Cn1c(N)c(C(=O)COC(=O)c2ccc3ccccc3n2)c(=O)n(C)c1=O,"inconclusive: 20.6 µM [inhibitor, single point]"
15,Cc1cc(=O)oc2cc(NC(=O)c3cc4ccccc4o3)ccc12,"inconclusive: 2.91 µM [activator, partial curve]"
16,CC1(c2ccc(Cl)cc2)NC(=O)N(CN2CCOCC2)C1=O (stereo not drawn),inactive
17,Cc1ccc2nc(-c3cc(-c4ccccc4)no3)cn2c1,"inconclusive: 0.517 µM [activator, full curve]"
18,COC(=O)N/N=C(\C)c1ccc(C)c([N+](=O)[O-])c1,"inconclusive: 20.6 µM [activator, single point]"
19,Cc1ccc(/C=c2/sc3n(c2=O)CCCN=3)o1,"inconclusive: 18.4 µM [activator, partial curve]"
20,CCOC(=O)C1CCN(C(=O)C(C)Oc2ccc(Br)cc2)CC1 (stereo not drawn),"inconclusive: 25.9 µM [inhibitor, single point]"
21,CCN(CC)S(=O)(=O)c1ccc2c(c1)nc(SC(C)C(N)=O)n2-c1ccc(OC)cc1 (stereo not drawn),"inconclusive: 29.1 µM [inhibitor, single point]"
22,Cc1ccc(S(=O)(=O)N2CCOC2CNC(=O)C(=O)NCc2ccc3c(c2)OCO3)cc1 (stereo not drawn),"inconclusive: 20.6 µM [inhibitor, single point]"
23,COc1ccc(S(=O)(=O)Nc2cccc3c2O[C@H](CN(C)Cc2ccccc2)[C@@H](C)CN([C@H](C)CO)C3=O)cc1,"inconclusive: 18.3 µM [activator, partial curve, poor fit]"

# Quoted at random: 3 records from the list
row,Compound,Potency
10,CCc1ccc(NC(=S)Nc2cccc(OC)c2)cc1,"inconclusive: 29.1 µM [activator, single point]"
21,CCN(CC)S(=O)(=O)c1ccc2c(c1)nc(SC(C)C(N)=O)n2-c1ccc(OC)cc1 (stereo not drawn),"inconclusive: 29.1 µM [inhibitor, single point]"
3,O=C(N/N=C/c1ccc[nH]1)c1cc(-c2ccc(Cl)cc2)nc2ccccc12,"inconclusive: 18.3 µM [inhibitor, single point]"

# The list continues.

row,Compound,Potency
1,O=C(Nc1nc(-c2ccc(F)cc2)cs1)c1cccc(N2C(=O)CCC2=O)c1,"inconclusive: 20.6 µM [inhibitor, single point]"
2,O=C(COC(=O)c1cccc(C(=O)OCC(=O)NCc2ccc(F)cc2)n1)NCc1ccc(F)cc1,"inconclusive: 36.6 µM [activator, partial curve, poor fit]"
3,C=CCN1C(=O)c2ccc(C(=O)N(CC)CC(=O)Nc3c(F)cccc3F)cc2C1=O,"inconclusive: 0.82 µM [activator, partial curve, poor fit]"
4,O=C(C[n+]1cn(C(F)F)c2ccccc21)c1ccc(Br)cc1,"inconclusive: 25.9 µM [activator, single point]"
5,Cc1cc(Cl)cc2c(N=Nc3ccccc3C(=O)O)c(O)[nH]c12,"inconclusive: 5.8 µM [activator, full curve, poor fit]"
6,Cc1cc(C(=O)N/N=C/c2cccs2)no1,"inconclusive: 29.1 µM [activator, single point]"
7,COc1ccc(CCN(Cc2cccs2)S(=O)(=O)c2ccc(S(=O)(=O)N3CCC(C)CC3)cc2)cc1OC,inactive
8,Cc1ccc(C(=O)/C=C/c2ccc(-c3ccc(C)cc3)o2)cc1,inactive
9,O=C(Cc1ccc(Br)cc1)NC1CCSC1=O (stereo not drawn),"inconclusive: 4.61 µM [activator, single point]"
10,CCOC(=O)c1sc(NC(=S)NC(=O)c2cccc(OC)c2)nc1C,inactive
11,COc1cc([N+](=O)[O-])ccc1N1C(=O)C2C3C=CC(C4CC34)C2C1=O (stereo not drawn),inactive
12,C(=C\c1ccc(/C=C/c2ccccc2)nn1)/c1ccccc1,inactive
13,O=C(N/N=C/c1ccccc1[N+](=O)[O-])c1ccc2nc[nH]c2c1,"inconclusive: 16.4 µM [activator, partial curve]"
14,CC(C)(C)c1ccc(C(=O)Nc2ccc(C(=O)N3CCOCC3)cc2)cc1,inactive
15,COc1ccc(/C=N/NC(=O)c2cccnc2)cc1CSc1nc2ccccc2s1,active: 7.31 µM
16,CC(C)(C)C(=O)Nc1ccc(-c2csnn2)cc1,"inconclusive: 16.4 µM [activator, partial curve]"
17,Cc1cccnc1NC(=S)NC(=O)c1cncc(Br)c1,"inconclusive: 23.1 µM [activator, single point]"
18,CCOC(=O)CSc1nc2ccccc2c(=O)[nH]1,inactive
19,O=C(CN(CCc1ccccc1)Cc1ccccc1)Oc1ccccc1P(=O)(O)O,inactive
20,COc1ccc(/C=N\NC(=O)c2ccccc2Br)cc1COc1ccc(F)cc1,inactive
21,COc1ccc(-n2c(CN3CCN(c4ccccc4OC)CC3)nc3ccc([N+](=O)[O-])cc3c2=O)c(OC)c1,inactive
22,Cc1cc(C)c[n+](C(C)C(=O)c2ccc(-c3ccccc3)cc2)c1 (stereo not drawn),"inconclusive: 1.03 µM [inhibitor, partial curve, poor fit]"
